In paper doi:10.1101/2022.01.13.476264:
Changes are numbered by the printed parent chain. Names and notes keep the numbering of the source. These are yes or no findings as the source states them, for the method shown. Some results given as binding are weak or reduced against the parent protein; the word gives no strength. Where a sequence is shown, tags or fusion partners need not be part of it.

How the values were obtained:
[1] = target: T1, Sgs1-Helicase core fused to lexA-DBD (S. cerevisiae) (UniProt P35187); test: two-hybrid
T1 sequence: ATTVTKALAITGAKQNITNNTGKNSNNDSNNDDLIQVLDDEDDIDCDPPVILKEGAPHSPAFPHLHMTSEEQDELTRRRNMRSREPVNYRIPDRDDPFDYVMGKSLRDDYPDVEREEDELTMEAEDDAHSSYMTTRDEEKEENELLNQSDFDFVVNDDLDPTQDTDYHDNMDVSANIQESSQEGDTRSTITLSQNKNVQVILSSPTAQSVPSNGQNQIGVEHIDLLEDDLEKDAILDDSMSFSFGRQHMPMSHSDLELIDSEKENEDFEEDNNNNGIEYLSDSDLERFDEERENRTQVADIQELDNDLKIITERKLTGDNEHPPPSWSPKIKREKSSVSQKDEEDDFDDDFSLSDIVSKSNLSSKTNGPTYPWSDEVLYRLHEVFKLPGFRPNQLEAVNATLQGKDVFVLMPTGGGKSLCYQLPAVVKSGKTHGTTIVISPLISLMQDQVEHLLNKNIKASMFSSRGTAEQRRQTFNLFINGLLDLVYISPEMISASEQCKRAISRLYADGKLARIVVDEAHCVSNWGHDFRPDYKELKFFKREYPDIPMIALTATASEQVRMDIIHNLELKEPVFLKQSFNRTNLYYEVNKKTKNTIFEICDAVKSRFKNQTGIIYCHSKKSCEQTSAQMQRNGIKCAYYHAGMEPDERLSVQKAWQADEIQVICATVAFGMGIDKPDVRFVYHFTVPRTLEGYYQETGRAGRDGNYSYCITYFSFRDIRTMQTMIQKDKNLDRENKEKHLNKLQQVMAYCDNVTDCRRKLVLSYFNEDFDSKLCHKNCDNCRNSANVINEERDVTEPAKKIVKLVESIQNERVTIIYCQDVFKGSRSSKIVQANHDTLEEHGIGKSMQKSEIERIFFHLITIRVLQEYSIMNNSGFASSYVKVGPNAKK

[2] = target: T2, Mre11-C terminal region fused to lexA-DBD (S. cerevisiae) (UniProt P32829); test: two-hybrid
T2 sequence: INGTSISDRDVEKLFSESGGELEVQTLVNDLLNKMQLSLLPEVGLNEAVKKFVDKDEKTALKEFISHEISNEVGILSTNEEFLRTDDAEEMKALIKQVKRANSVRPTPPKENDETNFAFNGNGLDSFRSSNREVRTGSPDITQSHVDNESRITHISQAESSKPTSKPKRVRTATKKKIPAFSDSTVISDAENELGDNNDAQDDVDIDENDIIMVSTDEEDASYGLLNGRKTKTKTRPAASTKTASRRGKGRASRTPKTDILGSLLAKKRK

B1: Nej1 (wild type) fused to HA-AD (protein, UniProt Q06148 1-342)
chain: MDSELKGQQLSDAEWCVKKINGEGNCLLLFLPMSSPTTIVMIVLVSLERLVPYVFKLSQTQLSQQCQSQGFTDSISLNLIKLKLMDILQAPQEINQIGLVDSNLVFSFDVSADITVSINSVPSHVTKDMFYMILQSLCMLLLKLVNLSTQYHYVQRDILNEKQKCLDFLLISLRDLDGGSKVISQWAPENSKNYESLQQCTDDDIIKKLLHKGKFQHQEFLADSLKTLLSLRNKFQDVSRFEESGELNKKERVRFPAVNHFYNDDFELQADPTNEARPNSRGKIKPKTDFKPKSRESSTSSQLRLENFSESEATPEKTKSSSSLVEEYPQKKRKFGKVRIKN
- binding [1]: binds
- binding [2]: binds

B2: Nej1-2 (FGKV→AAAA) fused to HA-AD (protein, UniProt Q06148 1-342)
chain: B1 chain with F335A, G336A, K337A, V338A
- binding [1]: binds
- binding [2]: binds

B3: Nej1 F335A fused to HA-AD (protein, UniProt Q06148 1-342)
chain: B1 chain with F335A
- binding [1]: binds
- binding [2]: binds

B4: Nej1 V338A fused to HA-AD (protein, UniProt Q06148 1-342)
chain: B1 chain with V338A
- binding [1]: binds
- binding [2]: binds
